The values below come from paper PMC11855827, “High-Throughput Screening of Five Compound Libraries for Anthelmintic Activity and Toxicity Leads to the Discovery of Two Flavonoid Compounds” (International Journal of Molecular Sciences, 2025).

For this assay, the system named is C. elegans. The assay can be described thus: microbe, parasite or virus in culture. The conditions noted are these: Caenorhabditis elegans.

The structures appear in SMILES notation. Where two headings read alike, the source gives them in different places.

Turning to `CN[C@@H]1C[C@H]2O[C@@](C)([C@@H]1OC)n1c3ccccc3c3c4c(c5c6ccccc6n2c5c31)C(=O)NC4` [Staurosporine], the inhibition at 110 µM (0 h, read-out: Percentage of motility inhibition 0 h) is 15% and the inhibition at 110 µM (24 h, read-out: Percentage of motility inhibition 24 h) was 33%.

In the case of `NCCCC(=O)O` [γ-Aminobutyric acid], the inhibition at 110 µM (0 h, read-out: Percentage of motility inhibition 0 h, Table S2, C. elegans SS assay, 110 μM, 0 h, averages of 4 data points) is 13% and the inhibition at 110 µM (24 h, read-out: Percentage of motility inhibition 24 h, Table S2, C. elegans SS assay, 110 μM, 24 h, averages of 4 data points) came out at 21%.

A word on the inhibition: it is the relative decrease from the control value, in per cent.
